Source: patent publication US20030162221A1
No constants are given. Whether binding was seen depends on the method and setting. In cells and extracts the contact can be indirect. Some binding calls cover weakened binding; strength is not graded here. For part of these data: Where a sequence is shown, tags or fusion partners need not be part of it. Values belong to the binder of their own block, whether it stands above or below them.

Sequences of proteins named here, by UniProt entry; tags and fusion partners are left off. Residues count along the entry.
UniProt P00546, residues 2-298: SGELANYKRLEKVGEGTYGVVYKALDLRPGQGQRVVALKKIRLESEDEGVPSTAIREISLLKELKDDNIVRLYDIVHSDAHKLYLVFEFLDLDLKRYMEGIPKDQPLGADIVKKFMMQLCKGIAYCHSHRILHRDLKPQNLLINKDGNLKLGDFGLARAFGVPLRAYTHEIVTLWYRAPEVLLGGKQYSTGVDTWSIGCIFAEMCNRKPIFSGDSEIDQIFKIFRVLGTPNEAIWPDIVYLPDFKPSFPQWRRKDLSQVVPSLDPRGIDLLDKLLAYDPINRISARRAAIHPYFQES
UniProt P47035: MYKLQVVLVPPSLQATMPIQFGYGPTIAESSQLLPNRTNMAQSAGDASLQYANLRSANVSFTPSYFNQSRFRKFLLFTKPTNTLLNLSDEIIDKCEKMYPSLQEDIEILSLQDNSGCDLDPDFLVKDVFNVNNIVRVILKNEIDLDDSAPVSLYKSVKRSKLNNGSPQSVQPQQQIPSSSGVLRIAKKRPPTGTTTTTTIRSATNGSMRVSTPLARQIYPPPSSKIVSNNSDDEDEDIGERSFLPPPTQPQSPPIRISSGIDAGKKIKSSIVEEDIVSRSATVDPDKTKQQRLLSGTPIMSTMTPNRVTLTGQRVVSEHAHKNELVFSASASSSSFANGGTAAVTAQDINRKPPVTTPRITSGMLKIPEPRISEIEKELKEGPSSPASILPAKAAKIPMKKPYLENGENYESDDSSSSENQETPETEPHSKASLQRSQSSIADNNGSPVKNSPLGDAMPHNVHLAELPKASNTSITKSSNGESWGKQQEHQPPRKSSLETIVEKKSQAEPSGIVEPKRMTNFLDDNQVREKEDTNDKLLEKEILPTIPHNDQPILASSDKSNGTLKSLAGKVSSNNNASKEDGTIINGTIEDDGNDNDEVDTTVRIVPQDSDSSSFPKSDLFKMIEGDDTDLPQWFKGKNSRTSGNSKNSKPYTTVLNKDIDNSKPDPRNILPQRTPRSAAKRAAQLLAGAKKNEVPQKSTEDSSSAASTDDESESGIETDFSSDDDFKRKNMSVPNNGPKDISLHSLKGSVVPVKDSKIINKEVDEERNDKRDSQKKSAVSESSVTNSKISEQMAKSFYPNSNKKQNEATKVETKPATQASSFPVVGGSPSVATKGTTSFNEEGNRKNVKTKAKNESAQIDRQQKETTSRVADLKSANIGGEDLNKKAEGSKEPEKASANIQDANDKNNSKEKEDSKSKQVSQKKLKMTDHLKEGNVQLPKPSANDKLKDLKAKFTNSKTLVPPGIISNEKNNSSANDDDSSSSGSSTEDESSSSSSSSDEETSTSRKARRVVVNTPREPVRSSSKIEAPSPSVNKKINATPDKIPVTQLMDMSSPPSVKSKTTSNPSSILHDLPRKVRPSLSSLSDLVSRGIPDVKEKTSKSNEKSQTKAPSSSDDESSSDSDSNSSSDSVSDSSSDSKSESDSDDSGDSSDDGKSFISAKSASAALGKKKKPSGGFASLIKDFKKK
UniProt P22579: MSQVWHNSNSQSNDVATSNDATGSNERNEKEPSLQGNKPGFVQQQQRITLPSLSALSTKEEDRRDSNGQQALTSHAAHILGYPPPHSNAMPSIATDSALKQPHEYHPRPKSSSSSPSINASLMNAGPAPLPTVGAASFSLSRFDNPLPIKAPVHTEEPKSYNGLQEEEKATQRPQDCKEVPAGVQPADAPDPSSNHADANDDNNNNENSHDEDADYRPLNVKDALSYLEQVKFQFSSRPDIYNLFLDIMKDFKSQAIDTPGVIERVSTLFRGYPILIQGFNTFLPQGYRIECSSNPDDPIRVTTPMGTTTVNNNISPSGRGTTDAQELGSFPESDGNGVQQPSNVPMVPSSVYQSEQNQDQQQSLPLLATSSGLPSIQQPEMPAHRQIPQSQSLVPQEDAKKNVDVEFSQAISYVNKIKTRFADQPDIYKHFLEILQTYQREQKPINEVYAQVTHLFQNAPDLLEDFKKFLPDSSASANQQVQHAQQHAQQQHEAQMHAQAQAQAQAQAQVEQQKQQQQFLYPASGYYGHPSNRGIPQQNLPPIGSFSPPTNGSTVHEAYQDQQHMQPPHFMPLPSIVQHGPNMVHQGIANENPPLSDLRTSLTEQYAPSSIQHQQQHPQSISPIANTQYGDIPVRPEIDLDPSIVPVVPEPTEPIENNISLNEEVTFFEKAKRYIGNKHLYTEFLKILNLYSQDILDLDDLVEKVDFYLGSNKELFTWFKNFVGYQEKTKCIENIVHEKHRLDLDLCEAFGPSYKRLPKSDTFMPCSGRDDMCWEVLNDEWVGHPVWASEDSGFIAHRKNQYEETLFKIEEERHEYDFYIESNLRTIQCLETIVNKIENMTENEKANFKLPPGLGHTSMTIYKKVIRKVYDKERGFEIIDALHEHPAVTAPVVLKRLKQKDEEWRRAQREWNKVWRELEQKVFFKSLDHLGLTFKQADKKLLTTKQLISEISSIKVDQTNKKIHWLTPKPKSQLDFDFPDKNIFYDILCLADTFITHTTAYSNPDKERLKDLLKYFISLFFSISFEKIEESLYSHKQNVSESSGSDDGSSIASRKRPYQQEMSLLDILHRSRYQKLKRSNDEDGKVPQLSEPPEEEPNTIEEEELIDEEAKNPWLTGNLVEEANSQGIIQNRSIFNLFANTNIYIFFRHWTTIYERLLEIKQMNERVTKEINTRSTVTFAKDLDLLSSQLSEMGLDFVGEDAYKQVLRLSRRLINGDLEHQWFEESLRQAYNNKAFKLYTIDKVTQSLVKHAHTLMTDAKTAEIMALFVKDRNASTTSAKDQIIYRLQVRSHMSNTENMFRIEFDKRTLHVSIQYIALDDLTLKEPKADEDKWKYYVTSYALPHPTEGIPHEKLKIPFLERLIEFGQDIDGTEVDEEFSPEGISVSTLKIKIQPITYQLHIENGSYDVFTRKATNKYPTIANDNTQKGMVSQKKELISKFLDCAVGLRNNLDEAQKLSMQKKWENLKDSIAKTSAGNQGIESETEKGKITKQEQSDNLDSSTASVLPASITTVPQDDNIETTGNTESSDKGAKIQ

Key:
Assay in all cases: anti-FLAG co-IP, LC-MS/MS
[1] = molecular target: Cdc28 (Saccharomyces cerevisiae) (UniProt P00546)
[2] = molecular target: T1, Fhl1 (Saccharomyces cerevisiae) (UniProt P39521)
T1 sequence (looked up): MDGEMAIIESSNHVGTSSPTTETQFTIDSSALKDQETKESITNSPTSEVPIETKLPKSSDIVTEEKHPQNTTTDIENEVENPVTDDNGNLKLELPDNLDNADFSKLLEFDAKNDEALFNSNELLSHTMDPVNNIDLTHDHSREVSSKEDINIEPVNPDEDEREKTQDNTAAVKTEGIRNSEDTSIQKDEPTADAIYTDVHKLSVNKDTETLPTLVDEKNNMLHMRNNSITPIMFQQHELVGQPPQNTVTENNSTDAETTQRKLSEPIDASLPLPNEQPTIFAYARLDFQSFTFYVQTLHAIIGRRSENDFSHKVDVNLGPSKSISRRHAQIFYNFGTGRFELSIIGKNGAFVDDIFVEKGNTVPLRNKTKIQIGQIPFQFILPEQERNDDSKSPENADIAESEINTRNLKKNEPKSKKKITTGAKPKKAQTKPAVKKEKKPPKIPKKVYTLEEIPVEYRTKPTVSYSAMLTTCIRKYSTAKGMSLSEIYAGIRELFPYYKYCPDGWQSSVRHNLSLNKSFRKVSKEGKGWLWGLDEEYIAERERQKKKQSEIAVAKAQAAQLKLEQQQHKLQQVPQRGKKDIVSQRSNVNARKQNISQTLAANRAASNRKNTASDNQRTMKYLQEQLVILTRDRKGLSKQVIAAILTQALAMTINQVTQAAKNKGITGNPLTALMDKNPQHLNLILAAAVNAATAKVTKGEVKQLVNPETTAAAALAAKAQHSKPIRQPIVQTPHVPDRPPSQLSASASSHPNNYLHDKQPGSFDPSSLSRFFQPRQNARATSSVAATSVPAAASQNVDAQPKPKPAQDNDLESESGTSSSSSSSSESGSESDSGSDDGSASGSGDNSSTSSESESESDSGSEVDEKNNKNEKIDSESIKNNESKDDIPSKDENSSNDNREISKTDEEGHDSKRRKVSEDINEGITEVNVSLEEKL

[3] = molecular target: T2, Fkh2 (Saccharomyces cerevisiae) (UniProt P41813)
T2 sequence (looked up): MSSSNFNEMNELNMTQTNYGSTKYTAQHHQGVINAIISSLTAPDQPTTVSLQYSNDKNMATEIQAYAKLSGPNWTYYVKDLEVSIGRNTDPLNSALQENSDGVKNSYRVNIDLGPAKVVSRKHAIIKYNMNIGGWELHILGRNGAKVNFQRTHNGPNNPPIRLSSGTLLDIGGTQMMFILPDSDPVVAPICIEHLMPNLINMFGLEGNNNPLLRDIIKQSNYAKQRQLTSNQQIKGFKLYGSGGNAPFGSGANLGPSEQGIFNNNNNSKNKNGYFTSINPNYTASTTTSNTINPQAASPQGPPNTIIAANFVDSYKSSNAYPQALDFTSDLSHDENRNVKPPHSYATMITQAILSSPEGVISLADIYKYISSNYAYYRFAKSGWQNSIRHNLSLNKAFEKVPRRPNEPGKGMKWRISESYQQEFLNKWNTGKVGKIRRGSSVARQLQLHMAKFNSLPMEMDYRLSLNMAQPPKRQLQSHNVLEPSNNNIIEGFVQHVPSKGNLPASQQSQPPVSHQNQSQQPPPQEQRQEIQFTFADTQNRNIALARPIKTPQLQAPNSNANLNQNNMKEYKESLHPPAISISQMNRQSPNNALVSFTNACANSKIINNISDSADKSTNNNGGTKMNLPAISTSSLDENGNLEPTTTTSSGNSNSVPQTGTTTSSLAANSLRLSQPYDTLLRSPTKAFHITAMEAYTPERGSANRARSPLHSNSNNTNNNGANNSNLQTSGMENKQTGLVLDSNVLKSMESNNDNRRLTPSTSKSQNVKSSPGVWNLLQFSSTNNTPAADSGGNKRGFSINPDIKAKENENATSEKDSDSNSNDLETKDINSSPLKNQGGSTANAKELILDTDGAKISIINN

[4] = molecular target: Net1 (Saccharomyces cerevisiae) (UniProt P47035)
[5] = molecular target: Sin3 (Saccharomyces cerevisiae) (UniProt P22579)
[6] = molecular target: T3, Rck2 (Saccharomyces cerevisiae) (UniProt P38623)
T3 sequence (looked up): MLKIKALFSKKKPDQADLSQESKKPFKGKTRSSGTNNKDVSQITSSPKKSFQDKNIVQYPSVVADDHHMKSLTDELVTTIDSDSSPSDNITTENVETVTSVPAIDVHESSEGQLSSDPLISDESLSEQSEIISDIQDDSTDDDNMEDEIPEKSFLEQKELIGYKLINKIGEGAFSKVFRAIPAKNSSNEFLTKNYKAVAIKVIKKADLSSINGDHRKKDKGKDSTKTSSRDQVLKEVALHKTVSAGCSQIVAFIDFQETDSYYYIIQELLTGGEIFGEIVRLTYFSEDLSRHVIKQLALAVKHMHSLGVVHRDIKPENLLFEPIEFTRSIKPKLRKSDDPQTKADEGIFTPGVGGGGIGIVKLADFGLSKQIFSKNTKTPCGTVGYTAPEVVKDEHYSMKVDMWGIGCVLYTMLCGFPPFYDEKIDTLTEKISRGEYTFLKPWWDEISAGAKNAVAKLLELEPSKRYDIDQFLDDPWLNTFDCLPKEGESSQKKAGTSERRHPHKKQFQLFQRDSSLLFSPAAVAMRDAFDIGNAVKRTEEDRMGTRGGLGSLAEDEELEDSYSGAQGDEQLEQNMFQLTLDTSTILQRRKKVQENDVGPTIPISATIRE

- binding [1]: binds
- binding [2]: binds
- binding [3]: binds
- binding [4]: binds
- binding [5]: binds
B1: Fkh1 (protein, Saccharomyces cerevisiae, UniProt P40466 1-484, looked up)
chain: MSVTSREQKFSGKYSSYTAQDRQGLVNAVTCVLSSSSDPVAVSSDYSNSLSIAREVNAYAKIAGCDWTYYVQKLEVTIGRNTDSLNLNAVPGTVVKKNIDIDLGPAKIVSRKHAAIRFNLESGSWELQIFGRNGAKVNFRRIPTGPDSPPTVLQSGCIIDIGGVQMIFILPEQETIISDYCLNHLMPKLLSTYGTNGNNNPLLRNIIEGSTYLREQRLQEEARLQQLDHLHTPLSSSSDVNPIGDPHGDTIMMEEDEEDENYTRGGIRPNTYTSSSNNAVTNGNVPHIENPSDLSLDENRYIKPPQSYASMITQAILSTPEGSISLADIYKFISDNYAFYRFSQMAWQNSVRHNLSLNKAFEKVPKRAGQQGKGMNWKISDEVRRDFLNKWNAGKLSKIRRGASVTRQLQLHMSKFGEIPAPESSSIDPRGIKAQKVKKSLQATSSILGESAPQLQRTQLTGQISTTTSMDVTTNANVNNSSLS

- binding [6]: binds
B2: Hog1 (protein, Saccharomyces cerevisiae, UniProt P32485 1-435, looked up)
chain: MTTNEEFIRTQIFGTVFEITNRYNDLNPVGMGAFGLVCSATDTLTSQPVAIKKIMKPFSTAVLAKRTYRELKLLKHLRHENLICLQDIFLSPLEDIYFVTELQGTDLHRLLQTRPLEKQFVQYFLYQILRGLKYVHSAGVIHRDLKPSNILINENCDLKICDFGLARIQDPQMTGYVSTRYYRAPEIMLTWQKYDVEVDIWSAGCIFAEMIEGKPLFPGKDHVHQFSIITDLLGSPPKDVINTICSENTLKFVTSLPHRDPIPFSERFKTVEPDAVDLLEKMLVFDPKKRITAADALAHPYSAPYHDPTDEPVADAKFDWHFNDADLPVDTWRVMMYSEILDFHKIGGSDGQIDISATFDDQVAAATAAAAQAQAQAQAQVQLNMAAHSHNGAGTTGNDHSDIAGGNKVSDHVAANDTITDYGNQAIQYANEFQQ
